Patent publication US20140057807A1
Results are given in words; binding and its absence hold for the method and conditions named. Binding can be weak; no strength is given.

What follows are binders tested against lysozyme (assay: cradle library selection hit).

| binding | Binder |
| --- | --- |
| binds | SEQ ID NO 137 (designed binder) NVSPPRRARVTDATETTITISWRTKTETITQFHVTAGPHWVGRIQRTIKPDVRSYTITGLQPGTAYLIYALSTLRSYRYQWPVVIDAST |
| binds | SEQ ID NO 141 (designed binder) NVSPPRRARVTDATETTITISWRTKTETITAFYVQAYPYSDHSIQRTIKPDVRSYTITGLQPGTYYDITLSTLRSYYYRPVVIDAST |
| binds | SEQ ID NO 139 (designed binder) NVSPPRRARVTDATETTITISWRTKTETITRFYVEATPSAAANTSIQRTIKPDVRSYTITGLQPGTMYQIWLATLSYYASHYPVVIDAST |
| binds | SEQ ID NO 138 (designed binder) NVSPPRRARVTDATETTITISWRTKTETITYFHVSALPLVYGSYIQRTIKPDVRSYTITGLQPGTTYDIYLSTLNSHWLTAPVVIDAST |
| binds | SEQ ID NO 140 (designed binder) NVSPPRRARVTDATETTITISWRTKTETITSFGVTAKPVWSWGSIQRTIKPDVRSYTITGLQPGTGYAISLYTLLRYWYRYYPVVIDAST |

The next lines start with the binder.

| Binder | binding |
| --- | --- |
| SEQ ID NO 130 (designed binder) NVSPPRRARVTDATETTITISWRTKTETITSFWVWAKPYSYYWGSIQRTIKPDVRSYTITGLQPGTWYAINLYTLTYRFWGDPVVIDAST | binds |
| SEQ ID NO 132 (designed binder) NVSPPRRARVTDATETTITISWSTKTETITSFVVGARPYYYPYIQRTIKPDVRSYTITGLQPGTVYGIWLQTLRYYYGYTPVVIDAST | binds |
| SEQ ID NO 131 (designed binder) NVSPPRRARVTDATETTITISWRTKTETITYFGDVSAGPSSTYIESIQRTIKPDVRSYTITGLQPGTWYNIVLQTLYSWSYWPVVIDAST | binds |
| SEQ ID NO 135 (designed binder) NVSPPHRARVTDATETTITISWRTKTETITNFLVYAYPTEHVRIQRTIKPDVRSYTITGLQPGTKYWIYLYTLIYNMYYPVVIDAST | binds |
| SEQ ID NO 134 (designed binder) NVSPPRRARVTDATETTITISWRTKTETITSFSVIAFPLRERAATIQRTIKPDVRSYTITGLQPGTLYSIILNTLWRYYPIPVVIDAST | binds |
| SEQ ID NO 136 (designed binder) NVSPPRRARVTDATETTITISWRTKTETITGFSVWAQPGYLEEIQRTIKPDVRSYTITGLQPGTSYDSIALSTLGRYRWSDPVVIDAST | binds |
| SEQ ID NO 133 (designed binder) NVSPPRRARVTDATETTITISWRTKTETITAFEVVAHPNYDYYIQRTIKPDVRSYTITGLQPGTSYWIYLYTLYSRRYLPVVIDAST | binds |
